Results: PubChem BioAssay AID1487 (National Center for Advancing Translational Sciences (NCATS), 2009)
Several values for one entry are separate records, joined by “and”; a condition that tells them apart may be missing. Identical values can stand only once. Some of the results follow. Shown are side measurements of this screen, not its main read-out; they come without a call. Compounds called inactive in the main read-out are mostly missing here. The note in brackets gives the kind of curve behind each potency; many fits are weak.

Test: qHTS Assay for Modulators of Lamin A Splicing
Details: HeLa LMNA splicing GFP/RFP minigene ratio, 48 h
Outline: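 Read-out is the ratio of GFP to DsRed2 object intensity, acquired by 488 nm laser-scanning cytometry on HeLa lamin A-EGFP minigene reporter cells. Compound incubation 48 hrs at 37 °C in Opti-MEM with 2% FBS; DMSO 0.5% final.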

[1] = measured here: GFP splicing reporter channel
[2] = measured here: RFP viability control channel

In the case of Cc1cccc(NS(=O)(=O)c2ccc(C)c(C(=O)OCC(=O)Nc3cc(C)on3)c2)c1, the AC50 [1] is reported as 11.2 µM [rising, partial curve, poor fit] and the AC50 [2] is reported as 11.2 µM [rising, partial curve].
For CC(C(=O)Nc1cccc(Br)c1)c1ccc([N+](=O)[O-])cc1 (stereo unspecified), the AC50 [2] was 14.1 µM [rising, single point].
With COc1ccc2[nH]cc(CCNc3nc(-c4ccccc4OC)nc4ccccc34)c2c1 the AC50 [1] was 35.5 µM [falling, single point].
In the case of Cc1csc(NC(=O)C2CCCN(S(=O)(=O)c3ccc(Br)s3)C2)n1 (stereo unspecified), the AC50 [1] is reported as 11.2 µM [rising, partial curve, poor fit] and the AC50 [2] is reported as 12.6 µM [rising, partial curve].
With COC(=O)c1ccc2c(c1)N(CC(=O)Nc1ccc(C)c(C)c1)C(=O)c1ccccc1S2 the AC50 [1] was 0.316 µM [falling, full curve].
In the case of CCCC1=C(C(=O)OCC)C(c2ccc(F)cc2)n2ncnc2N1 (stereo unspecified), the AC50 [1] is reported as 0.00355 µM [falling, full curve, poor fit].
For Oc1ccccc1-c1cc(-c2ccc3c(c2)OCCO3)n[nH]1, the AC50 [1] was 35.5 µM [rising, single point] and the AC50 [2] was 35.5 µM [rising, single point].
In the case of O=[N+]([O-])c1ccc(/C=N/Nc2ncc(-c3ccccc3)cn2)cc1, the AC50 [2] is reported as 35.5 µM [falling, partial curve, poor fit].
With COc1ccc(CN(CCC(c2ccccc2)c2ccco2)C(=O)c2ccco2)cc1 (stereo unspecified) the AC50 [2] was 14.1 µM [rising, single point].
In the case of O=S(=O)(NCC(c1ccco1)N1CCN(c2ccc(F)cc2)CC1)c1cc(F)ccc1F (stereo unspecified), the AC50 [1] is reported as 0.0708 µM [falling, full curve, poor fit].
In the case of COc1ccc(CCNC(=O)c2ccc3[nH]c(C)c(C)c3c2)cc1OC, the AC50 [1] is reported as 25.1 µM [falling, single point] and the AC50 [2] is reported as 35.5 µM [falling, single point].
With CCCN1CCc2c(sc(NC(=S)NC(=O)c3ccccc3)c2C#N)C1 the AC50 [2] was 0.0112 µM [falling, full curve, poor fit].
In the case of CCCCS/C(=C(/C#N)C(N)=O)c1cc2c([nH]1)CCCC2, the AC50 [1] is reported as 35.5 µM [rising, single point] and the AC50 [2] is reported as 35.5 µM [rising, single point].
With Nc1ccc(S(=O)(=O)NNC(=O)C(=O)NNc2ccccc2)cc1 the AC50 [2] was 10 µM [rising, partial curve, poor fit].
With O=C(O)c1ccc(Nc2ncnc3scc(-c4ccccc4)c23)cc1 the AC50 [1] was 10 µM [falling, partial curve] and 12.6 µM [falling, partial curve] and the AC50 [2] was 4.47 µM [falling, partial curve, poor fit] and 10 µM [falling, partial curve].
